This note sets out measurements from the supplement of paper PMC10849652.

Amino acid sequences for entries named in this document (tags omitted). A change or cut given only in a name is not applied to a line headed by its entry.
UniProt Q8TCG2: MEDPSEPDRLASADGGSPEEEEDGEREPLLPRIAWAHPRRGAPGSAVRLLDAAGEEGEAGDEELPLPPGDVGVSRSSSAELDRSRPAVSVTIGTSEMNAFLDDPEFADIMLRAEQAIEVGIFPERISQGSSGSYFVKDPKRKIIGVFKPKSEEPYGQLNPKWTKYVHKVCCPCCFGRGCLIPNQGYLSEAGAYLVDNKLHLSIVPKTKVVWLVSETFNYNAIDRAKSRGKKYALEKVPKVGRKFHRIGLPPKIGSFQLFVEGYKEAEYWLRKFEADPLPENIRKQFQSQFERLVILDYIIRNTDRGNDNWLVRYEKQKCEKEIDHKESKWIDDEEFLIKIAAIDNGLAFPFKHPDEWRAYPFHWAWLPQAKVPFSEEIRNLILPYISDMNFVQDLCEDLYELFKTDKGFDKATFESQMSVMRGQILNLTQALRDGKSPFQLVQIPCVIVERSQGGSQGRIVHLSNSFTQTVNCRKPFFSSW
UniProt P40855: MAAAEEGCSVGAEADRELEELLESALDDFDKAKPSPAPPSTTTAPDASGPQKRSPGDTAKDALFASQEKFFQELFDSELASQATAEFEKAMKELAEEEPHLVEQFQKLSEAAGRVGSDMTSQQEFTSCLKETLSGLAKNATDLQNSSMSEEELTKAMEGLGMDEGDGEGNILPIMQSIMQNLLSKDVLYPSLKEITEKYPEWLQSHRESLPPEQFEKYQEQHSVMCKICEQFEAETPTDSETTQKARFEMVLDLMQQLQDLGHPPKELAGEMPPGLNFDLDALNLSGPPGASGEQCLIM
UniProt P78356: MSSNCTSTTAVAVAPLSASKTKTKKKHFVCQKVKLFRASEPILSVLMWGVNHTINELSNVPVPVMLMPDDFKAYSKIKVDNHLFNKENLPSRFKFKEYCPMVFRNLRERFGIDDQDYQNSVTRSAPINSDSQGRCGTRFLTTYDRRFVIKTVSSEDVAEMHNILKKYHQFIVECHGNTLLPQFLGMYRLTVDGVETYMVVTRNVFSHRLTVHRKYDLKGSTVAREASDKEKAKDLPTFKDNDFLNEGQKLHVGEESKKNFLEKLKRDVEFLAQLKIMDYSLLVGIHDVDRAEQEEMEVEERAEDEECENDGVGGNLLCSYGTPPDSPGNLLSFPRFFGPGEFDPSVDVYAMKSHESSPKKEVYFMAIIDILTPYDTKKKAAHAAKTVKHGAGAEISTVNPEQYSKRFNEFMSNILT
UniProt O15173: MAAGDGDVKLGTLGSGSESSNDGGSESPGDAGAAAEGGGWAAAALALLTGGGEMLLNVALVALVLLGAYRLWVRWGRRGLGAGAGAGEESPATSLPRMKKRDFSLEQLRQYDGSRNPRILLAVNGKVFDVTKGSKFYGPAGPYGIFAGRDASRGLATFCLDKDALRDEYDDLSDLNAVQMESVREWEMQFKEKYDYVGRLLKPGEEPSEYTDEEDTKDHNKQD
UniProt Q9BTU6: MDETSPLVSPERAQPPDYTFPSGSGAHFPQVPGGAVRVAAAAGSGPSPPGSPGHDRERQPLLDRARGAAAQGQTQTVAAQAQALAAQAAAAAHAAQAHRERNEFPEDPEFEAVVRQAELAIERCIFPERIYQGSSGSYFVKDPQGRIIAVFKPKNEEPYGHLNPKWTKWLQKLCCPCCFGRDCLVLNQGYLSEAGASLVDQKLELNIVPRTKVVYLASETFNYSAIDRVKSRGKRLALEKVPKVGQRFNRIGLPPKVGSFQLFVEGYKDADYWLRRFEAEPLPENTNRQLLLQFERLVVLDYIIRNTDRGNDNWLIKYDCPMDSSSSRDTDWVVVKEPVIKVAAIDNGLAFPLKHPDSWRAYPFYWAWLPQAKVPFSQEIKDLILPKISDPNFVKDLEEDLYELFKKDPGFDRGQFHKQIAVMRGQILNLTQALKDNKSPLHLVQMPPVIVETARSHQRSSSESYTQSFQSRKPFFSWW
UniProt Q6P4A8: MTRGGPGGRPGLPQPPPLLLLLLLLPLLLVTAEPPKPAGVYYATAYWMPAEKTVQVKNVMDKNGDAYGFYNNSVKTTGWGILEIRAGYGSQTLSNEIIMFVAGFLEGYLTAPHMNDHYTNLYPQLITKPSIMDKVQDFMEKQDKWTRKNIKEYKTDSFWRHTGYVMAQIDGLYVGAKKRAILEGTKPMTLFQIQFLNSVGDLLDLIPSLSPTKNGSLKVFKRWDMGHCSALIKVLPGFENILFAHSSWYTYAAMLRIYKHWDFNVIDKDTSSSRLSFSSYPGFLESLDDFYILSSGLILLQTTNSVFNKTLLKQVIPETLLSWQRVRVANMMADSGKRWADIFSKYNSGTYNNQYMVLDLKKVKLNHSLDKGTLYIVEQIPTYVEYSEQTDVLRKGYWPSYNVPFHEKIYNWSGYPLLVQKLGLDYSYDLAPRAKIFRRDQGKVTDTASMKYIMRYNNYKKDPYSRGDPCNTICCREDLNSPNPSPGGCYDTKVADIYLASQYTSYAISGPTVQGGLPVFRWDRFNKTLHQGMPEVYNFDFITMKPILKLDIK
UniProt P52209: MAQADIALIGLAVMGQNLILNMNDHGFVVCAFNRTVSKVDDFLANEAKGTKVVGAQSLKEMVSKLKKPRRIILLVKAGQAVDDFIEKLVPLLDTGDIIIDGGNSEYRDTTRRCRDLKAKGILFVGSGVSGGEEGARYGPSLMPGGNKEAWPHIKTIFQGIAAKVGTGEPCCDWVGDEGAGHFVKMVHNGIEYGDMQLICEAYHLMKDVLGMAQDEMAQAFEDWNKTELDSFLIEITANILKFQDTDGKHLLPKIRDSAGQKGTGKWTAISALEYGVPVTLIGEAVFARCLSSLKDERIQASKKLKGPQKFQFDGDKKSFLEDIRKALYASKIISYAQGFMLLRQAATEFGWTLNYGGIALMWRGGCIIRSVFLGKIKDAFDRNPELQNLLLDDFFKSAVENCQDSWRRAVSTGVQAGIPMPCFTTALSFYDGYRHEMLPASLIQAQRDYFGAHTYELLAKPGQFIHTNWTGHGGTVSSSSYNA
UniProt Q92576, whole entry, looked up: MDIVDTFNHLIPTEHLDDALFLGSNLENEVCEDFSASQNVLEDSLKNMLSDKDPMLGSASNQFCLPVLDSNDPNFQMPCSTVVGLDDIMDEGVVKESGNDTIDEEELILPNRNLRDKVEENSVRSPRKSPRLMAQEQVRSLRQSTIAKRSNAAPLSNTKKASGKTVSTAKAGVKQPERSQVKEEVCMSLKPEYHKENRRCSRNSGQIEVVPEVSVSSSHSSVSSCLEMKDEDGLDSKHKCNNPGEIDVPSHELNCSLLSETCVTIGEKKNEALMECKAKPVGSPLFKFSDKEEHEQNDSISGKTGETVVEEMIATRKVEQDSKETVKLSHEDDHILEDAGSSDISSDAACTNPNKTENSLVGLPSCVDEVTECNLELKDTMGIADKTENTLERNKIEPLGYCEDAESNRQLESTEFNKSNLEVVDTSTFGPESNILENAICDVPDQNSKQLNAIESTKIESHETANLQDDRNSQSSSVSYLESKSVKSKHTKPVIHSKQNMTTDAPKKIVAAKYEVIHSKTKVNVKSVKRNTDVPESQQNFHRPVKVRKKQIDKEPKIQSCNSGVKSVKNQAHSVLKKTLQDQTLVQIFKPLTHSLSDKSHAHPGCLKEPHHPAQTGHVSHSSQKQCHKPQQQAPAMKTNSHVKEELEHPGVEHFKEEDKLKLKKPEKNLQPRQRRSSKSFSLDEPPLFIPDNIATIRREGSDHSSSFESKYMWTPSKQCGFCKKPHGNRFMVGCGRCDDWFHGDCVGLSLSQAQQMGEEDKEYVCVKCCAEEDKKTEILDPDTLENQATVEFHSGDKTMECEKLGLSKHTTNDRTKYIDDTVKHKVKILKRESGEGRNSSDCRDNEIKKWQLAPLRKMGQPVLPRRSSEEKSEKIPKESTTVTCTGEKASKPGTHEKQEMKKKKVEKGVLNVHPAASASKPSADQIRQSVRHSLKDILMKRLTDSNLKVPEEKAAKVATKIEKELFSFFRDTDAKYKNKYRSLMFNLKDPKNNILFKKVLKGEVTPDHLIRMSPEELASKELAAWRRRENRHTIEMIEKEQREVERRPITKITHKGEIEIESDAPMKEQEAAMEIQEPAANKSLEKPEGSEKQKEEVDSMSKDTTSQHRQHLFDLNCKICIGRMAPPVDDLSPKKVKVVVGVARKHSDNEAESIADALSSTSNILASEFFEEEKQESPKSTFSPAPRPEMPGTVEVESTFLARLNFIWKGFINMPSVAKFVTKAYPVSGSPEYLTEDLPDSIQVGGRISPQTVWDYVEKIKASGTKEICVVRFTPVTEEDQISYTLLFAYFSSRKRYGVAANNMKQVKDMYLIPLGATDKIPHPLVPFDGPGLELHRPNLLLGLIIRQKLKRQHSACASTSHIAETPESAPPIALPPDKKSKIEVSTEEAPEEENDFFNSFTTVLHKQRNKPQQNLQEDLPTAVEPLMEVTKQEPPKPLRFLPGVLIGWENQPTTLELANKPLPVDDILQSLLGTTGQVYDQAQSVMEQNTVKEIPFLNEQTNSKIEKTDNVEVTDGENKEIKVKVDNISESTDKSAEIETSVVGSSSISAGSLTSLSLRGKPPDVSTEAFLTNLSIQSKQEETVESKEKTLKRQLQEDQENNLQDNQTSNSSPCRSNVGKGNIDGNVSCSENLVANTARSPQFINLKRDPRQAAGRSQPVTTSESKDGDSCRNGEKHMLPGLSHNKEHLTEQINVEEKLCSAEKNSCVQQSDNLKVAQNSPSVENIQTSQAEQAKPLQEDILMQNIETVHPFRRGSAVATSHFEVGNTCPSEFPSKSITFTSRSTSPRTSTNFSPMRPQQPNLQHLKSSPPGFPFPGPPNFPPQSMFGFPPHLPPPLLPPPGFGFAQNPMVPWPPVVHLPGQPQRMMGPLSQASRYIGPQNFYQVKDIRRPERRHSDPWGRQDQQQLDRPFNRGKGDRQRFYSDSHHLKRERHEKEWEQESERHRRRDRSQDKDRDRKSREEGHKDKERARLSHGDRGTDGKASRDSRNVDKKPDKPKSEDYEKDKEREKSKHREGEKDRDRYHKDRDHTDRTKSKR
UniProt O00628: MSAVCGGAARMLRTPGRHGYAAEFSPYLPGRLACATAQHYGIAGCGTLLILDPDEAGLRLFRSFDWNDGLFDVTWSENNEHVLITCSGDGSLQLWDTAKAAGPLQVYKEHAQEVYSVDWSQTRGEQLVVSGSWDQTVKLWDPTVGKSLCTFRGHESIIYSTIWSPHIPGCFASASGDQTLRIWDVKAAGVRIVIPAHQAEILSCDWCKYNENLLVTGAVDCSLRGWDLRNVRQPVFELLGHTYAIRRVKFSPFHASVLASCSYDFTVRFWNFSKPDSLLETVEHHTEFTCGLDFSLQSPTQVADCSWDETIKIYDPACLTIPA

Common to all, as to assay: log2 fold change, soluble protein after heating vs DMSO (PISA); higher = thermal stabilisation; K562 cells, 10 uM, 30 min; active = over 0.2 and 3.5 SD of the protein, either way, in both replicates (recomputed)
Compound in experiment [1]: C1=CC=C(C=C1)[C@H](COC2=CC3=C(C=C2)NC(=O)N3)NC(=O)C4=CC=CN(C4=O)CC5=CC(=C(C=C5)F)F
A digest of the protocol: (§1)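 For each measurement, 10 μM compound was applied for 30 min to K562 cells at 2×10^6 cells/mL. Aliquots were heated for 3 min across 48°C-58°C, pooled, and extracted in PBS with 0.5% NP-40 at 4°C; the supernatant after 21,000xg for 90 min was soluble protein. This was quantified by TMTpro 16plex LC-MS/MS with channel sums equalised, and thermal stability was reported relative to control samples from duplicates, on a log2 fold-change scale.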

Compound in experiment [2]: CC1=C(SC2=C1C(=N[C@H](C3=NN=C(N32)C)CC(=O)N)C4=CC=C(C=C4)Cl)C
A digest of the protocol:
as §1

Compound in experiment [3]: CC1=C2C(=CC=C1)N=C(N(C2=O)C3=CC=CC=C3C)CN4C=NC5=C(N=CN=C54)N
A digest of the protocol:
as §1

Compound in experiment [4]: Cc1sc2c(c1C)C(c1ccc(Cl)cc1)=N[C@@H](CC(=O)OC(C)(C)C)c1nnc(C)n1-2
A digest of the protocol: as §1

Compound in experiment [5]: c1ccc([C@@H]2C[C@H]2NC2CCNCC2)cc1
A digest of the protocol: as §1

Some of the results follow.

PI4K2B (UniProt Q8TCG2): the log2 fold change in experiment [1] is inactive: 0.007; in experiment [2], inactive: 0.031; in experiment [3] it was inactive: 0.065; in experiment [4], inactive: 0.024; in experiment [5], inactive: -0.041.

Take PEX19 (UniProt P40855): the log2 fold change was inactive: 0.035 in experiment [1]; inactive: -0.03 in experiment [2]; inactive: -0.008 in experiment [3]; inactive: -0.016 in experiment [4]; inactive: 0.034 in experiment [5].

With PIP4K2B (UniProt P78356), the log2 fold change in experiment [1] was inactive: -0.102; in experiment [2], inactive: 0.018; in experiment [3] it was inactive: -0.034; in experiment [4], inactive: -0.038; in experiment [5], inactive: -0.026.

For PGRMC2 isoform 2 (UniProt O15173), the log2 fold change was inactive: 0.044 in experiment [1]; inactive: 0.047 in experiment [2]; inactive: 0.005 in experiment [3]; inactive: -0.006 in experiment [4]; inactive: -0.01 in experiment [5].

For PI4K2A (UniProt Q9BTU6), the log2 fold change was inactive: 0.015 in experiment [1]; inactive: 0.043 in experiment [2]; inactive: 0.064 in experiment [3]; inactive: -0.004 in experiment [4]; inactive: 0.013 in experiment [5].

Turning to PLBD1 (UniProt Q6P4A8), the log2 fold change in experiment [1] is inactive: 0.005; in experiment [2] it was inactive: -0.011; in experiment [3], inactive: -0.018; in experiment [4] it was inactive: -0.006; in experiment [5], inactive: 0.013.

On to PGD (UniProt P52209), for which the log2 fold change in experiment [1] is inactive: -0.028; in experiment [2] it was inactive: 0.04; in experiment [3], inactive: -0.006; in experiment [4] it was inactive: -0.014; in experiment [5] it was inactive: -0.029.

For the target PHF3 (UniProt Q92576), the log2 fold change is inactive: 0.073 in experiment [1]; inactive: -0.055 in experiment [2]; inactive: -0.167 in experiment [3]; inactive: 0.176 in experiment [4]; inactive: 0.041 in experiment [5].

For PEX7 (UniProt O00628), the log2 fold change in experiment [1] is active: -0.371; in experiment [2], inactive: 0.035; in experiment [3] it was inactive: 0.136; in experiment [4], inactive: 0.021; in experiment [5], inactive: -0.03.
